Some of the results follow. Repeats are few or missing, and single values can be far off.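 The apoptosis fraction was the count of cleaved-PARP antibody-stained nuclei relative to all DNA-stained nuclei, imaged in 1,536-well plates. Screening doses were set so most cells survived, and baseline and induced cleaved-PARP levels vary greatly across cell lines.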
Assays:
Test in all cases: cleaved PARP positive nuclei fraction relative to DMSO control; melanoma cells; higher = more apoptosis
Settings in all cases: library dose: low library concentration; 72 h
[1] = system: 501Mel
[2] = system: A101D
[3] = system: A2058
[4] = system: C32
[5] = system: CBRC008 (line from a melanoma biopsy)
[6] = system: CBRC014 (line from a melanoma biopsy)
[7] = system: CBRC016 (line from a melanoma biopsy)
[8] = system: CBRC017 (line from a melanoma biopsy)

| Compound | cleaved PARP positive nuclei fraction [1] [%] | cleaved PARP positive nuclei fraction [2] [%] | cleaved PARP positive nuclei fraction [3] [%] | cleaved PARP positive nuclei fraction [4] [%] | cleaved PARP positive nuclei fraction [5] [%] | cleaved PARP positive nuclei fraction [6] [%] | cleaved PARP positive nuclei fraction [7] [%] | cleaved PARP positive nuclei fraction [8] [%] |
| --- | --- | --- | --- | --- | --- | --- | --- | --- |
| C[C@]1(O)C[C@@H](c2nc(-c3ccc4ccc(-c5ccccc5)nc4c3)c3c(N)nccn32)C1 + CCc1ccc(CCOc2ccc(CC3SC(=O)NC3=O)cc2)nc1 [pioglitazone] (first compound 0.4 µM, partner dose 2 µM) | 235 | 17.9 | 40.1 | 38.5 | 121 | 111 | 36.4 | 133 |
| Cn1cnc2c(F)c(Nc3ccc(Br)cc3Cl)c(C(=O)NOCCO)cc21 [selumetinib] + COc1cc2ncnc(Nc3ccc(Oc4ccccc4)cc3)c2cc1OC [SrcI1] (first compound 0.015 µM, partner dose 2 µM) | 323 | 31.8 | 70.7 | 115 | 203 | 79.9 | 73 | 188 |
| COc1ccc(C2=N[C@@H](c3ccc(Cl)cc3)[C@@H](c3ccc(Cl)cc3)N2C(=O)N2CCNC(=O)C2)c(OC(C)C)c1 [Nutlin-3] + COC(=O)c1sccc1S(=O)(=O)Nc1ccc(Nc2ccccc2)cc1OC [GSK0660] (first compound 0.1 µM, partner dose 1 µM) | 73 | 21.9 | 24.3 | 121 | 125 | 111 | 100 | 87.1 |
| CN(c1ncccc1CNc1nc(Nc2ccc3c(c2)CC(=O)N3)ncc1C(F)(F)F)S(C)(=O)=O + O=C1NC(=O)/C(=C/c2ccc(-c3ccc(F)cc3O)o2)S1 [AS252424] (first compound 0.08 µM, partner dose 1 µM) | 157 | 46.4 | 117 | 86.5 | 150 | 209 | 83.4 | 105 |
| CC1(C)CCC(c2ccc(Cl)cc2)=C(CN2CCN(c3ccc(C(=O)NS(=O)(=O)c4ccc(N[C@H](CCN5CCOCC5)CSc5ccccc5)c(S(=O)(=O)C(F)(F)F)c4)cc3)CC2)C1 + COc1cc(N2CCC(N3CCN(C)CC3)CC2)ccc1Nc1ncc(Cl)c(Nc2ccccc2S(=O)(=O)C(C)C)n1 [NVP-TAE684] (first compound 0.4 µM, partner dose 0.08 µM) | 189 | 71.2 | 52.2 | 179 | 687 | 803 | 664 | 686 |
| C[C@]1(O)C[C@@H](c2nc(-c3ccc4ccc(-c5ccccc5)nc4c3)c3c(N)nccn32)C1 + c1cc(-c2cnn3cc(-c4ccc(OCCN5CCCCC5)cc4)cnc23)ccn1 [Dorsomorphin] (first compound 0.4 µM, partner dose 0.4 µM) | 43.2 | 18.7 | 203 | 27.6 | 39.4 | 104 | 46.9 | 102 |
| NC1(c2ccc(-c3nc4ccn5c(=O)[nH]nc5c4cc3-c3ccccc3)cc2)CCC1 + COc1cc(N2CCC(N3CCN(C)CC3)CC2)ccc1Nc1ncc(Cl)c(Nc2ccccc2S(=O)(=O)C(C)C)n1 [NVP-TAE684] (first compound 0.4 µM, partner dose 0.08 µM) | 131 | 27.5 | 79.3 | 133 | 271 | 174 | 78.3 | 81.1 |
| CN(c1ncccc1CNc1nc(Nc2ccc3c(c2)CC(=O)N3)ncc1C(F)(F)F)S(C)(=O)=O + COc1cc(N2CCC(N3CCN(C)CC3)CC2)ccc1Nc1ncc(Cl)c(Nc2ccccc2S(=O)(=O)C(C)C)n1 [NVP-TAE684] (first compound 0.08 µM, partner dose 0.08 µM) | 160 | 27.6 | 90 | 143 | 133 | 107 | 28.8 | 90.5 |
| CCCCCCCCc1ccc(CCC(N)(CO)CO)cc1 [fingolimod] + CCc1ccc(CCOc2ccc(CC3SC(=O)NC3=O)cc2)nc1 [pioglitazone] (first compound 2 µM, partner dose 2 µM) | 66.8 | 22.7 | 297 | 87.9 | 46.6 | 106 | 61.8 | 99.6 |
| C[C@]1(O)C[C@@H](c2nc(-c3ccc4ccc(-c5ccccc5)nc4c3)c3c(N)nccn32)C1 + COc1ccc2c(c1)CCC1C2CCC2(C)C(NCCCCCCN3C(=O)C=CC3=O)CCC12 [U73122] (first compound 0.4 µM, partner dose 0.4 µM) | 81.1 | 25 | 95.7 | 40 | 160 | 278 | 88.2 | 120 |
| CC(=O)O[C@@]12CO[C@@H]1C[C@H](O)[C@@]1(C)C(=O)[C@H](O)C3=C(C)[C@@H](OC(=O)[C@H](O)[C@@H](NC(=O)OC(C)(C)C)c4ccccc4)C[C@@](O)([C@@H](OC(=O)c4ccccc4)[C@H]21)C3(C)C [Docetaxel] + COc1ccc(COc2ccc(Cc3cnc(N)nc3N)cc2OC)cc1 [GW2580] (first compound 0.0001 µM, partner dose 1 µM) | 224 | 58 | 4540 | 40.3 | 252 | 205 | 218 | 100 |
| NC(=O)c1ccc(N(C(N)=O)c2c(F)cccc2F)nc1-c1ccc(F)cc1F + COC(=O)c1sccc1S(=O)(=O)Nc1ccc(Nc2ccccc2)cc1OC [GSK0660] (first compound 0.4 µM, partner dose 1 µM) | 64.2 | 45.9 | 67.4 | 143 | 120 | 107 | 82.2 | 101 |
| COc1ccc(C2=N[C@@H](c3ccc(Cl)cc3)[C@@H](c3ccc(Cl)cc3)N2C(=O)N2CCNC(=O)C2)c(OC(C)C)c1 [Nutlin-3] + CC(C)CCN1c2nc(Nc3cc(F)c(O)c(F)c3)ncc2N(C)C(=O)C1C [BID1870] (first compound 0.1 µM, partner dose 0.2 µM) | 80 | 25.9 | 68.7 | 70 | 290 | 103 | 106 | 111 |
| C[C@@H](N)c1ccc(C(=O)Nc2ccnc3[nH]ccc23)cc1 + CCN(CC)CCCCNc1ncc2cc(-c3cc(OC)cc(OC)c3)c(NC(=O)NC(C)(C)C)nc2n1 [PD173074] (first compound 0.4 µM, partner dose 0.1 µM) | 111 | 10.2 | 121 | 45.8 | 112 | 136 | 114 | 165 |
| CCCCCCCCc1ccc(CCC(N)(CO)CO)cc1 [fingolimod] + COc1ccc2c(c1)CCC1C2CCC2(C)C(NCCCCCCN3C(=O)C=CC3=O)CCC12 [U73122] (first compound 2 µM, partner dose 0.4 µM) | 127 | 25.2 | 225 | 79.2 | 152 | 1130 | 141 | 83.6 |
| NC(=O)c1ccc(N(C(N)=O)c2c(F)cccc2F)nc1-c1ccc(F)cc1F + CCN(CC)CCCCNc1ncc2cc(-c3cc(OC)cc(OC)c3)c(NC(=O)NC(C)(C)C)nc2n1 [PD173074] (first compound 0.4 µM, partner dose 0.1 µM) | 54.3 | 11.4 | 29.2 | 115 | 80.9 | 82.3 | 11.5 | 162 |
| CC(=O)O[C@@]12CO[C@@H]1C[C@H](O)[C@@]1(C)C(=O)[C@H](O)C3=C(C)[C@@H](OC(=O)[C@H](O)[C@@H](NC(=O)OC(C)(C)C)c4ccccc4)C[C@@](O)([C@@H](OC(=O)c4ccccc4)[C@H]21)C3(C)C [Docetaxel] + O=C(O)C(=O)Nc1sc2c(c1C(=O)O)CCNC2 [TCS401] (first compound 0.0001 µM, partner dose 1.66667 µM) | 93.5 | 27.8 | 2610 | 156 | 509 | 113 | 146 | 233 |
| CS(=O)(=O)c1ccc(C(=O)Nc2ccc(Cl)c(-c3ccccn3)c2)c(Cl)c1 [vismodegib] + O=C(Nc1ccccc1)c1cc([N+](=O)[O-])ccc1Cl [GW9662] (first compound 1 µM, partner dose 2 µM) | 54.4 | 34.2 | 45.9 | 145 | 42.6 | 95.8 | 64.9 | 83.8 |
| COc1ccc(C2=N[C@@H](c3ccc(Cl)cc3)[C@@H](c3ccc(Cl)cc3)N2C(=O)N2CCNC(=O)C2)c(OC(C)C)c1 [Nutlin-3] + N#Cc1c(O)c2c(-c3ccc(-c4ccccc4O)cc3)csc2[nH]c1=O [A769662] (first compound 0.1 µM, partner dose 2 µM) | 64.2 | 44.9 | 114 | 124 | 48.6 | 75.2 | 74.5 | 181 |
| CCN(CC)CCNC(=O)c1c(C)[nH]c(/C=C2\C(=O)Nc3ccc(F)cc32)c1C [sunitinib] + O=S(=O)(c1ccccc1)N(CC(F)(F)F)c1ccc(C(O)(C(F)(F)F)C(F)(F)F)cc1 [T0901317] (first compound 0.4 µM, partner dose 1.4 µM) | 293 | 46.3 | 65.9 | 86.8 | 112 | 92.1 | 93.3 | 118 |
| C[C@]1(O)C[C@@H](c2nc(-c3ccc4ccc(-c5ccccc5)nc4c3)c3c(N)nccn32)C1 + N#Cc1c(O)c2c(-c3ccc(-c4ccccc4O)cc3)csc2[nH]c1=O [A769662] (first compound 0.4 µM, partner dose 2 µM) | 79.1 | 69.7 | 69 | 86.9 | 463 | 81.9 | 39 | 258 |
| CCN(CC)CCNC(=O)c1c(C)[nH]c(/C=C2\C(=O)Nc3ccc(F)cc32)c1C [sunitinib] + O=C1NC(=O)/C(=C/c2ccc(-c3ccc(F)cc3O)o2)S1 [AS252424] (first compound 0.4 µM, partner dose 1 µM) | 97.3 | 15.9 | 127 | 47.3 | 137 | 89.8 | 99.5 | 89.3 |
| CN(c1ncccc1CNc1nc(Nc2ccc3c(c2)CC(=O)N3)ncc1C(F)(F)F)S(C)(=O)=O + O=S(=O)(c1ccccc1)N(CC(F)(F)F)c1ccc(C(O)(C(F)(F)F)C(F)(F)F)cc1 [T0901317] (first compound 0.08 µM, partner dose 1.4 µM) | 91.3 | 79.3 | 89.9 | 134 | 149 | 109 | 52.2 | 167 |
| C[C@@H](N)c1ccc(C(=O)Nc2ccnc3[nH]ccc23)cc1 + COc1ccc(COc2ccc(Cc3cnc(N)nc3N)cc2OC)cc1 [GW2580] (first compound 0.4 µM, partner dose 1 µM) | 55.4 | 10.2 | 33.3 | 41 | 51.4 | 124 | 110 | 106 |

Complete entries, quoted from the list:
CCN(CC)CCNC(=O)c1c(C)[nH]c(/C=C2\C(=O)Nc3ccc(F)cc32)c1C [sunitinib] + O=S(=O)(c1ccccc1)N(CC(F)(F)F)c1ccc(C(O)(C(F)(F)F)C(F)(F)F)cc1 [T0901317] (first compound 0.4 µM, partner dose 1.4 µM) reads cleaved PARP positive nuclei fraction [1] [%]: 293; cleaved PARP positive nuclei fraction [2] [%]: 46.3; cleaved PARP positive nuclei fraction [3] [%]: 65.9; cleaved PARP positive nuclei fraction [4] [%]: 86.8; cleaved PARP positive nuclei fraction [5] [%]: 112; cleaved PARP positive nuclei fraction [6] [%]: 92.1; cleaved PARP positive nuclei fraction [7] [%]: 93.3; cleaved PARP positive nuclei fraction [8] [%]: 118
C[C@]1(O)C[C@@H](c2nc(-c3ccc4ccc(-c5ccccc5)nc4c3)c3c(N)nccn32)C1 + N#Cc1c(O)c2c(-c3ccc(-c4ccccc4O)cc3)csc2[nH]c1=O [A769662] (first compound 0.4 µM, partner dose 2 µM) reads cleaved PARP positive nuclei fraction [1] [%]: 79.1; cleaved PARP positive nuclei fraction [2] [%]: 69.7; cleaved PARP positive nuclei fraction [3] [%]: 69; cleaved PARP positive nuclei fraction [4] [%]: 86.9; cleaved PARP positive nuclei fraction [5] [%]: 463; cleaved PARP positive nuclei fraction [6] [%]: 81.9; cleaved PARP positive nuclei fraction [7] [%]: 39; cleaved PARP positive nuclei fraction [8] [%]: 258

From the supplement of paper PMC4604168 (melanoma cell lines)
